Source: US20020187938A1, “Ghrelin antagonists” (priority 2000, published 2002)
Part of at least one peptide drawing is inferred or uncertain, most often the ends. Where a SMILES comes first, the peptide text is derived from it. The star is where a group is joined. Octanoyl = CCCCCCCC(=O)*

Test system: circulating GH
Test: Circulating GH in 10-day old rats after subcutaneous injection
Type: in vivo
Details: 300 mg/kg, circulating GH at 15 minutes
Method: The peptide was injected subcutaneously in 10-day old rats at a dose of 300 mg/kg along with a solvent control and Ghrelin, and the circulating GH determined at 15 minutes, as described in R. Deghenghi et al., Life Sciences 54, 1321-1328 (1994). The results were as follows: The peptide was administered to rats as described above in Example 1. […]

**Q.** How did the GH turn out when CCCCCCCC(=O)OC[C@H](NC(=O)[C@H](CO)NC(=O)CN)C(=O)N[C@@H](Cc1ccccc1)C(=O)N[C@@H](CC(C)C)C(=O)N[C@@H](CO)C(=O)N1CCC[C@H]1C(=O)N[C@@H](CCC(=O)O)C(=O)O [Peptide of Example 1, Gly-Ser-Ser(Octanoyl)-Phe-Leu-Ser-Pro-Glu] was run?
**A.** 1.40 ± 0.32 ng/mL

**Q.** Which GH does the source give for CCCCCCCC(=O)OC[C@H](NC(=O)[C@H](CO)NC(=O)CN)C(=O)N[C@@H](Cc1ccccc1)C(=O)O [Peptide of Example 3, Gly-Ser-Ser(Octanoyl)-Phe] (H-GSS(Octanoyl)F-OH; N-terminus and C-terminus assumed) here?
**A.** 7.7 ± 1.1 ng/mL
